We go through three substances from paper PMC8480849.

No constants are given. Whether binding was seen depends on the method and setting. In cells and extracts the contact can be indirect. Some binding calls cover weakened binding; strength is not graded here.

Holding throughout (experiment): co-IP; fresh half brains of 3-month-old wild-type male mice lysed in RIPA lysis buffer; 1 ml extract with 2 ug antibody at 4°C for 1 h, protein G agarose beads 30 min, three washes with bead buffer, Western blot; GAPDH as negative control
(In general: A western blot detects proteins with antibodies after separation by electrophoresis.)

The target in assay [1] is Dual-specificity Tyrosine-(Y)-phosphorylation-Regulated Kinase 1A (DYRK1A) (mouse (endogenous in mouse brain)) (UniProt Q61214).
Assay [2] has as its target GLUN2B (NR2B), subunit of the glutamatergic postsynaptic NMDA receptor (mouse (endogenous in mouse brain)) (UniProt Q01097).
The target in assay [3] is T1, SYNGAP (mouse (endogenous in mouse brain)) (UniProt F6SEU4).
T1 sequence: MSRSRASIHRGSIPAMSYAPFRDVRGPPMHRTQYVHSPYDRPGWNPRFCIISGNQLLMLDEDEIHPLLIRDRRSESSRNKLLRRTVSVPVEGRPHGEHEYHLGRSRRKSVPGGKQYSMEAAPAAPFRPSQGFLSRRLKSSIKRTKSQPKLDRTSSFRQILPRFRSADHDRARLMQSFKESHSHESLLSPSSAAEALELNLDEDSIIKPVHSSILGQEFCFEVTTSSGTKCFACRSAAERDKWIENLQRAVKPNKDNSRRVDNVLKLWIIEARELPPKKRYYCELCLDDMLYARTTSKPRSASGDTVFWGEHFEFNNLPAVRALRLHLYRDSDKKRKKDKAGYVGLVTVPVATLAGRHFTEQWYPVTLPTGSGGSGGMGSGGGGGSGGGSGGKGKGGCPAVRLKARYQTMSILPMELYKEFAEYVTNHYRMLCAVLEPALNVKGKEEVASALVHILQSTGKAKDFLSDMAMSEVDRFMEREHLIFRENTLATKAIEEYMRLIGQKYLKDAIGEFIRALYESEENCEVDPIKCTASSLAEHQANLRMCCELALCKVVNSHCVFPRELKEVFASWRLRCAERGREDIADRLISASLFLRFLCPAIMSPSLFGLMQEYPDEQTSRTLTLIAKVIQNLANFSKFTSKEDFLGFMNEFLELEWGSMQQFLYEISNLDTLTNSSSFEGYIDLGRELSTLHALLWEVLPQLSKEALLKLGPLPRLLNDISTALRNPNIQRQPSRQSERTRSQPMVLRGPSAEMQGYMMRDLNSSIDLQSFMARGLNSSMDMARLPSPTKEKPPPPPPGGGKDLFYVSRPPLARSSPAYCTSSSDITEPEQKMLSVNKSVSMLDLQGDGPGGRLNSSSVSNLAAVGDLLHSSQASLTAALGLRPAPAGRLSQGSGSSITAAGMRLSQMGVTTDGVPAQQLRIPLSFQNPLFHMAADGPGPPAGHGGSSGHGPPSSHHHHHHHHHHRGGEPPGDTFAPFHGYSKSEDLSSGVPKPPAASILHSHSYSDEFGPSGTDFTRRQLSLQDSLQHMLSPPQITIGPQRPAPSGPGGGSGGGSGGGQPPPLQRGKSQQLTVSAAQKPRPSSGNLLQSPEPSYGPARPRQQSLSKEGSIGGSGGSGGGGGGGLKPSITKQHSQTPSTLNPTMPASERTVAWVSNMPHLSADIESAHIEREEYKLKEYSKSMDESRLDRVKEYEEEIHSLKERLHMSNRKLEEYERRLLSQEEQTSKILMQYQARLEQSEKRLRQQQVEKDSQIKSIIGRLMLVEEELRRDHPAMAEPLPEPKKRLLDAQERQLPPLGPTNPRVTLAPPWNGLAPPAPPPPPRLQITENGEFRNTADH

With “CAMK2A, a subunit of the calcium/calmodulin-dependent protein kinase II (CAMK2) (from UniProt P11798 1-478)”, in assay [1], the binding entry is given as “binds”.
In the case of “Dual-specificity Tyrosine-(Y)-phosphorylation-Regulated Kinase 1A (DYRK1A) (from UniProt Q61214 1-763)”, the binding entry in assay [2] and in assay [3] was “binds” in each case.
For “GLUN2B (NR2B), subunit of the glutamatergic postsynaptic NMDA receptor (from UniProt Q01097 27-1482)”, the binding entry in assay [1] is on record as “binds”.
